The target of assay [1] is Insulin-like growth factor-1 receptor (mouse (endogenous in MES-13)) (UniProt Q60751). Description: co-IP; lysates (0.5 mg) of non-transfected, scrambled oligo (SC) or InsR shRNA transfected MES-13 cells; IP with anti-InsRα or anti-IGF-1Rα antibody, 4°C, 4 hours, protein G-Sepharose; immunoblot for IGF-1Rβ or InsRβ; supernatants of the immunoprecipitates also blotted for IGF-1Rβ (immunodepletion).

Protein sequences, listed by entry. Tags and fused reporters are not part of them. Lines headed by an entry give the natural chain unless they say otherwise; changes in a name come on top.
UniProt Q60751: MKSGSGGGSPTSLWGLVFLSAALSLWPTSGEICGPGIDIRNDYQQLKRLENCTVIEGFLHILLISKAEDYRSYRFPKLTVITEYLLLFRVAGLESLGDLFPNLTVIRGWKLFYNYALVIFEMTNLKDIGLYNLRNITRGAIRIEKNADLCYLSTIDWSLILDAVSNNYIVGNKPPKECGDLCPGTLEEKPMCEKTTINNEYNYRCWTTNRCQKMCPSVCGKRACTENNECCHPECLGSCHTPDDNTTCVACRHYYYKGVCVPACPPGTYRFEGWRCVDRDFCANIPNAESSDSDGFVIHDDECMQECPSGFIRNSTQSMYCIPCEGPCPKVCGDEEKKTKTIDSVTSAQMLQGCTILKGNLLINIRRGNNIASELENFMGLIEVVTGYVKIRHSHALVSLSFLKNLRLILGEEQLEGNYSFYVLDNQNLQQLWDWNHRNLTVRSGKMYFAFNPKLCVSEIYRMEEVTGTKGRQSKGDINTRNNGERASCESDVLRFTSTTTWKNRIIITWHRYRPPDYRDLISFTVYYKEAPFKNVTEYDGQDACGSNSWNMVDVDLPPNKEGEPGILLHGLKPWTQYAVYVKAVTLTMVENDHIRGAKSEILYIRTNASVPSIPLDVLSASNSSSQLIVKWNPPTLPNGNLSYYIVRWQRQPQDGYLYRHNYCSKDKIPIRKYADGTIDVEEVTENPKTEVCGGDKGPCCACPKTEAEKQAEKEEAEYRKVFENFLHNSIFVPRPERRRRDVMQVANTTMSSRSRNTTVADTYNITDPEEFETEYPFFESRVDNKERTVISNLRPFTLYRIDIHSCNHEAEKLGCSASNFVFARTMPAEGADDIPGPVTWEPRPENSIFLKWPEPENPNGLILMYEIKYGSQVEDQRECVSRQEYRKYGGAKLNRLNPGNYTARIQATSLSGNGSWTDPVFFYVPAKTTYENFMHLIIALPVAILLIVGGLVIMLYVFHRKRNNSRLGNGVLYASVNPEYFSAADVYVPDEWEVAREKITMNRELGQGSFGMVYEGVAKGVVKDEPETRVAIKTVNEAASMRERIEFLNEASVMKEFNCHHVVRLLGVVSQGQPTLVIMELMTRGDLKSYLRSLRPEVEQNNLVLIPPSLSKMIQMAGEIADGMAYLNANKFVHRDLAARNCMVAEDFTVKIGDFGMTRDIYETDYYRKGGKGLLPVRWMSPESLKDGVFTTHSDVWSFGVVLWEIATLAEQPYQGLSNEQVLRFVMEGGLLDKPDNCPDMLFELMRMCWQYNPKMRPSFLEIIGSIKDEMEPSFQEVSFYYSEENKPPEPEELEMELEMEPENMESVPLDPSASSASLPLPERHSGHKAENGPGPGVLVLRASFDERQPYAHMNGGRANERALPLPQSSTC
UniProt P15208: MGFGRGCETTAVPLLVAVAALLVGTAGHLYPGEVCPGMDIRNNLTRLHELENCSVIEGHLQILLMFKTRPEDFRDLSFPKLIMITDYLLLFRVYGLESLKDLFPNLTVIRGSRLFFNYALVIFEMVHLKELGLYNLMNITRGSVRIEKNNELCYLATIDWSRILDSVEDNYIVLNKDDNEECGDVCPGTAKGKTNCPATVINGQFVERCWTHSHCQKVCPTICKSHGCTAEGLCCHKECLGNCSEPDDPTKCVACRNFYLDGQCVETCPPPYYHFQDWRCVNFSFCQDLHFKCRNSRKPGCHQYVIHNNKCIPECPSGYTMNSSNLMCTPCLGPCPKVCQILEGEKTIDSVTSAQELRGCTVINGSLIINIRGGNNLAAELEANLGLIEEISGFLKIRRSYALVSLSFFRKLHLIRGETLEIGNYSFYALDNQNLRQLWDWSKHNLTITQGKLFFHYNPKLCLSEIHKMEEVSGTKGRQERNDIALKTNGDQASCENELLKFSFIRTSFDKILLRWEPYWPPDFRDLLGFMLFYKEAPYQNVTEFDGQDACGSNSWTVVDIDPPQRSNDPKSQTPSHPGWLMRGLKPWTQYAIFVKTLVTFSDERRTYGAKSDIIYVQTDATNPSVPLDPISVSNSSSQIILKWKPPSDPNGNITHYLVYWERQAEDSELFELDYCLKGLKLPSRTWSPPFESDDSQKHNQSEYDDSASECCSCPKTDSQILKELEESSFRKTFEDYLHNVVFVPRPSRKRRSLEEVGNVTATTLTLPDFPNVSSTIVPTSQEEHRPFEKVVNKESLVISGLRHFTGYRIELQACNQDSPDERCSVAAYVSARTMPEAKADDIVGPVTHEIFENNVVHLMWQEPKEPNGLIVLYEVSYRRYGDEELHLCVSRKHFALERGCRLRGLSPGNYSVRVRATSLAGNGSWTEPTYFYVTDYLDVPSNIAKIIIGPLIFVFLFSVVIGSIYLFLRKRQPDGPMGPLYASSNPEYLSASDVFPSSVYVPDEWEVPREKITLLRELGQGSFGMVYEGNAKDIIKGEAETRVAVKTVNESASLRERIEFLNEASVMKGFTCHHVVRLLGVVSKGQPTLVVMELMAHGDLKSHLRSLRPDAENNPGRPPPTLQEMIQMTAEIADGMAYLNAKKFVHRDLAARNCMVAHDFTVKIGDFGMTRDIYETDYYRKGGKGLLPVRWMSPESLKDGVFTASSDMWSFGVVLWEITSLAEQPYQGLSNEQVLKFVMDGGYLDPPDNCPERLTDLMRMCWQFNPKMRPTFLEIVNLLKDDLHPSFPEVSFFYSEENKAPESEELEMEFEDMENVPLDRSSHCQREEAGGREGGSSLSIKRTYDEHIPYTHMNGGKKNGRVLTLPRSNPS

The target in assay [2] is Insulin receptor (mouse (endogenous in MES-13)) (UniProt P15208). The description is as above.

Results are given in words; binding and its absence hold for the method and conditions named. Binding seen in cells or lysates may run through a third protein. Some results given as binding are weak or reduced against the parent protein; the word gives no strength.

Turning to “Insulin-like growth factor-1 receptor (from UniProt Q60751 31-737; Q60751 742-1373)”, the binding result in assay [1] and in assay [2] was “binds” each time. Consider “Insulin receptor (from UniProt P15208 28-748; P15208 753-1372)”, for which the binding result in assay [1] was “binds”.

(Values after publication PMC3507851.)
